Measurements reported in patent US20130178475A1, “sGC STIMULATORS” (IRONWOOD PHARMACEUTICALS, INC., priority 2010, published 2013).
At least one compound was matched to its structure with a doubt left.

Target: T1, soluble guanylate cyclase (sGC) (Homo sapiens, UniProt Q02108+Q02153)
T1 construct: endogenously expressing soluble guanylate cyclase (sGC); endogenous in cells; host or cells: HEK293
T1 sequence (Q02153 1-619): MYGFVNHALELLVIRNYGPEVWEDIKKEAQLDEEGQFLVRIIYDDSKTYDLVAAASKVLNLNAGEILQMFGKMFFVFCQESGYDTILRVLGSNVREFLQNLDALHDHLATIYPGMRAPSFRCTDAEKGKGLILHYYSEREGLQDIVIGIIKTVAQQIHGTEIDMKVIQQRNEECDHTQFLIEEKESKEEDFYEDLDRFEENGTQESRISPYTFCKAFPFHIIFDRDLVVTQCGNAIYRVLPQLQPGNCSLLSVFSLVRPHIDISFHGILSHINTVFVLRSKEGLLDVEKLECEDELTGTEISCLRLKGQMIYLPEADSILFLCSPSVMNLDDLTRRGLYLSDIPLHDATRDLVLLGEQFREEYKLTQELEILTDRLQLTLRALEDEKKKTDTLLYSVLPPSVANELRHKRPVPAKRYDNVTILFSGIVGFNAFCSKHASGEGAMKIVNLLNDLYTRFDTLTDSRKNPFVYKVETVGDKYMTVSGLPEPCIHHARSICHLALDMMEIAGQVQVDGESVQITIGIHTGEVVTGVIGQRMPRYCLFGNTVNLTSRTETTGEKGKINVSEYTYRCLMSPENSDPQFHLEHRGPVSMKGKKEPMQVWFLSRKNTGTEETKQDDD
T1 sequence (Q02108 1-690): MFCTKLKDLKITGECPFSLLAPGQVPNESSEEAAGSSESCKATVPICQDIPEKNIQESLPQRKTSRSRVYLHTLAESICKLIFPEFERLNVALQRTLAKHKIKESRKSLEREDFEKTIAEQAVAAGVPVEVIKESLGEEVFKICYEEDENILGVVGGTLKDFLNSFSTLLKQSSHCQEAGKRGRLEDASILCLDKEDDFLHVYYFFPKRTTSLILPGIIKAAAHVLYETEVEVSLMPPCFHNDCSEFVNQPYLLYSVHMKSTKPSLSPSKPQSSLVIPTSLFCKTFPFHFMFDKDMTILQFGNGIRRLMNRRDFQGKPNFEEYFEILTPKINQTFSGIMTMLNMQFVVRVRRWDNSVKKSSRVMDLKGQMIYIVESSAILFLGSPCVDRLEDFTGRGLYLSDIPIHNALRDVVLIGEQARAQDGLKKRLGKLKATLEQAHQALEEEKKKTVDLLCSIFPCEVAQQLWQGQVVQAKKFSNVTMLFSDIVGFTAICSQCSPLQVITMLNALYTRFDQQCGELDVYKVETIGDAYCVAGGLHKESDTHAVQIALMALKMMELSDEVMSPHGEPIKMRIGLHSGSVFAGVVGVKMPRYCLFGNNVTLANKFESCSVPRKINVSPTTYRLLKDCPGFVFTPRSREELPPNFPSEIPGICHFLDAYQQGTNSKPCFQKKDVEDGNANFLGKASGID
Assay: sGC-HEK-cGMP assay
Assay type: cell-based
Settings: HEK293 cells, test compound 30 μM, 10 min incubation, intracellular cGMP by LC/MS
Description: Human embryonic kidney cells (HEK293), endogenously expressing soluble guanylate cyclase (sGC), were used to evaluate the activity of test compounds. Compounds stimulating the sGC receptor should cause an increase in the intracellular concentration of cGMP. […] Cells were then incubated for 15 minutes at 37° C. with 0.5 mM 3-isobutyl-1-methylxanthine (2004). Test article was then added to the assay mixture (2 μL) and incubated at 37° C. for 10 minutes. After the 10 minute incubation, the assay mixture was aspirated and 0.1M HCl (2004) was added to the cells. The plate was incubated at 4° C. for 30 minutes in the 0.1M HCl to stop the reaction and lyse the cells. The plates were then centrifuged at 1,200 g for 5 minutes at room temperature. Supernatants were collected and transferred to a new flat bottom 96 well plate for analysis. Vehicle controls were carried out using DMSO (1%). A known sGC stimulator, BAY 41-2272, was used as the positive control.
Samples were diluted with an equal volume of 1 M Ammonium Acetate (pH 7) to neutralize samples for better chromatography. […]
cGMP concentrations were determined from each sample using the LC/MS conditions (Table 2 below) and calculated standard curve. EC50 values were calculated from concentration-response curves generated with GraphPad Prism Software.

CN(C)C(=O)N1CCc2c(c(-c3ncccn3)nn2Cc2ccccc2F)C1 [Compound I-50]
Increase in cGMP Concentration Tested at 30 μM in HEK Assay: A (A represents no increase or an increase ranging from more than 0 fold to less than 5 fold)
